# Some of the results follow. Further columns of the screen follow, without active or inactive calls.
# Test: NIH3T3 cell viability loss – plate reader, cherry-pick, two tests, cytotoxicity control, dose response (AID 651900)
# Settings: test 2 concentration series, at 26 µM
row,SMILES,activity [%]
1,Cc1c(C(N)=O)sc(N)c1C(=O)OC(C)C,-14.3
2,CC1(C(=O)NCc2ccc(F)c(F)c2)Cc2c(-c3cccc(C(N)=O)c3)ccnc2O1 (configuration not stated),-1.31
3,Cc1ccc(/C=C(\CCC(=O)O)c2nc3ccccc3s2)cc1[N+](=O)[O-],1.87
4,COc1ccc(C(=O)Nc2cccc(NC(=O)c3cccs3)c2)cc1,-2.49
5,Cc1c(OC(C)C(=O)NCc2ccccn2)ccc2c3c(c(=O)oc12)CCC3 (configuration not stated),-2.84
6,COc1ccc(NC(=O)c2ccc(S(=O)(=O)N(C)C)cc2)cc1OC,-4.93
7,O=C(NCc1ccco1)c1ccc(-c2ccc3nccn3c2)cc1,10.9
8,O=C(CSc1nnc(-c2ccncc2)n1-c1ccc(Cl)cc1)NCc1cccs1,-7.81
9,CC(C)n1c(N2CCN(C(=O)c3cccs3)CC2)nc2ccccc21,2.83
10,CCn1c(=O)c(=O)n(CC)c2cc(S(=O)(=O)Nc3cc(C)ccc3C)ccc21,-16
11,CCOc1ccc(C(=O)Nc2cc3c(cc2N2CCCC2)n(CC)c(=O)n3CC)cc1OCC,-13.7
12,CC(=O)c1ccc(N2CCN(c3ncccn3)CC2)c([N+](=O)[O-])c1,-1.3
13,O=C(CSc1nc2c(c(=O)n1-c1ccc(Cl)cc1)SCC2)N1CCOCC1,-3.89
14,Cc1cc(/C=C(/C#N)C(=O)Nc2ccccc2)c(C)n1-c1cccnc1,-0.912
15,Cc1nc2nc(SCC(=O)NCc3ccco3)nn2c(C)c1Cc1c(F)cccc1Cl,-1.14
16,CC(Oc1ccc2c(-c3ccccc3)cc(=O)oc2c1)C(=O)NCc1ccccn1 (configuration not stated),-10
17,Nc1cc(C(=O)O)ccc1Nc1ccccc1,-6.31

# Quoted at random: 2 records from the list.
row,SMILES,activity [%]
11,CCOc1ccc(C(=O)Nc2cc3c(cc2N2CCCC2)n(CC)c(=O)n3CC)cc1OCC,-13.7
12,CC(=O)c1ccc(N2CCN(c3ncccn3)CC2)c([N+](=O)[O-])c1,-1.3
